PubChem BioAssay AID1508597 | Cure First, 2020
Screen: 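Survival screen with siRNA in ovarian cancer cells derived from patients, with or without rucaparib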 (primary screen). Cells: human ovarian carcinoma lines grown from tumours: OCI-P5x (papillary serous) and OCI-C5x (clear cell). Reagents: siRNA pool against human genes, 1.25 pmol siRNA per well. Duration: 72 h or 96 h, depending on the cell culture. Treatment: rucaparib 20 µM (about IC30) or vehicle, present until read-out. Rucaparib or vehicle: Vehicle. Cell line: OCI-C5x (clear cell). Detection: 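ATP luminescence measured at 72 or 96 h according to the culture, then normalised and expressed as percent viability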. Reading the numbers: viability, normalised: higher = more viable cells remaining. Rule for the call: 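Active when normalised viability falls below 80 percent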. Meaning of the calls: active = viability under 80%; inactive = viability 80% or more.
This is a random part of the about 2,100 reagents, under one of the conditions tested. 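Calls flag viability under 80% in either arm, not effects specific to rucaparib; the reference for percent is not stated.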 A number with no mark means an inactive call. Some reagents were tested in more than one well and are listed for each. No sequences are given here. The record does not give: the 100% reference.

gene | technical replicate | viability, normalised (%)
CBX8 (chromobox 8) | 1 | 51.2 (active)
CBX8 (chromobox 8) | 2 | 48.5 (active)
CBX8 (chromobox 8) | 3 | 41.4 (active)
KALRN (kalirin RhoGEF kinase) | 1 | 82.3
KALRN (kalirin RhoGEF kinase) | 2 | 62.5 (active)
KALRN (kalirin RhoGEF kinase) | 3 | 55.2 (active)
FLT1 (fms related receptor tyrosine kinase 1) | 1 | 56.6 (active)
FLT1 (fms related receptor tyrosine kinase 1) | 2 | 43.8 (active)
FLT1 (fms related receptor tyrosine kinase 1) | 3 | 45.4 (active)
RNF168 (ring finger protein 168) | 1 | 39.4 (active)
RNF168 (ring finger protein 168) | 1 | 38.1 (active)
RNF168 (ring finger protein 168) | 2 | 42.3 (active)
RNF168 (ring finger protein 168) | 2 | 42.2 (active)
RNF168 (ring finger protein 168) | 3 | 48.6 (active)
RNF168 (ring finger protein 168) | 3 | 37.5 (active)
GRN (granulin precursor) | 1 | 53.6 (active)
GRN (granulin precursor) | 2 | 63.3 (active)
GRN (granulin precursor) | 3 | 60 (active)
CERK (ceramide kinase) | 1 | 42.6 (active)
CERK (ceramide kinase) | 2 | 56 (active)
CERK (ceramide kinase) | 3 | 52.2 (active)
HMGA2 (high mobility group AT-hook 2) | 1 | 18.5 (active)
HMGA2 (high mobility group AT-hook 2) | 2 | 34.8 (active)
HMGA2 (high mobility group AT-hook 2) | 3 | 35.1 (active)
PKM (pyruvate kinase M1/2) | 1 | 69.7 (active)
PKM (pyruvate kinase M1/2) | 2 | 72.3 (active)
PKM (pyruvate kinase M1/2) | 3 | 56.5 (active)
MELK (maternal embryonic leucine zipper kinase) | 1 | 65.1 (active)
MELK (maternal embryonic leucine zipper kinase) | 2 | 35.3 (active)
MELK (maternal embryonic leucine zipper kinase) | 3 | 51.6 (active)
DGKI (diacylglycerol kinase iota) | 1 | 57.7 (active)
DGKI (diacylglycerol kinase iota) | 2 | 45.1 (active)
DGKI (diacylglycerol kinase iota) | 3 | 61.1 (active)
FBXO11 (F-box protein 11) | 1 | 24.1 (active)
FBXO11 (F-box protein 11) | 2 | 32 (active)
FBXO11 (F-box protein 11) | 3 | 29.6 (active)
TBP (TATA-box binding protein) | 1 | 65.3 (active)
TBP (TATA-box binding protein) | 2 | 57.4 (active)
TBP (TATA-box binding protein) | 3 | 59 (active)
JAK1 (Janus kinase 1) | 1 | 59.6 (active)
JAK1 (Janus kinase 1) | 2 | 53.6 (active)
JAK1 (Janus kinase 1) | 3 | 49.8 (active)
TRIM66 (tripartite motif containing 66) | 1 | 62.9 (active)
TRIM66 (tripartite motif containing 66) | 2 | 59.6 (active)
TRIM66 (tripartite motif containing 66) | 3 | 61.4 (active)
YEATS4 (YEATS domain containing 4) | 1 | 40.8 (active)
YEATS4 (YEATS domain containing 4) | 2 | 70.8 (active)
YEATS4 (YEATS domain containing 4) | 3 | 58.1 (active)
MED18 (mediator complex subunit 18) | 1 | 50.9 (active)
MED18 (mediator complex subunit 18) | 2 | 36.3 (active)
MED18 (mediator complex subunit 18) | 3 | 41.5 (active)
MAST2 (microtubule associated serine/threonine kinase 2) | 1 | 63.6 (active)
MAST2 (microtubule associated serine/threonine kinase 2) | 2 | 63.1 (active)
MAST2 (microtubule associated serine/threonine kinase 2) | 3 | 49.2 (active)
JADE3 (jade family PHD finger 3) | 1 | 50.7 (active)
JADE3 (jade family PHD finger 3) | 2 | 49 (active)
JADE3 (jade family PHD finger 3) | 3 | 63.6 (active)
